Test results taken from the supplement of paper PMC10338343.
± gives the standard deviation. The list shows a part of the results. The uncertainty is large for many entries.

Tested on: EfPiwi piRISC loaded with L1MC piRNA (26 nt)
Assay: pre-steady-state target cleavage rate (min^-1); guide: L1MC piRNA 5'p-UAACUAAAUACUAUGCAAGCUGUAGG; MIWI and MILI are mouse PIWI proteins and EfPiwi is from a freshwater sponge; tags in brackets are library labels; higher = faster piRNA-guided slicing of the target
In short: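 In Cleave-'n-Seq, a transcribed, DNA-blocked target RNA library (0.1 nM) was combined with 1 nM active affinity-purified piRISC bearing one synthetic guide, with or without 500 nM GTSF1 partner protein. Reactions ran in HEPES–potassium acetate buffer at 33 °C for 0–8 or 0–960 min. Uncleaved targets were sequenced and normalised to depth and to weakly complementary targets, three trials were pooled, and k3 was capped at 0.0001 min^-1. The pre-steady-state cleavage rate was obtained by fitting a burst-and-steady-state model.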

[1] = auxiliary factor: 500 nM Ephydatia muelleri Gtsf1
[2] = auxiliary factor: none (no Gtsf1)

Sequence: UCCUGGUAGAGCUUGCAUAGAAUUUAGUUA
- pre-steady-state target cleavage rate [1]: 0.00278 ± 0.003
- pre-steady-state target cleavage rate [2]: 0.00193 ± 0.0063

Sequence: UCCUGGAUGUCGAUGCAUAGUAUUUAGUUG [g2:g17:cont:t1G]
- pre-steady-state target cleavage rate [1]: 0.00159 ± 0.0046
- pre-steady-state target cleavage rate [2]: 0.000141 ± 0.059

Sequence: UCCUGGAUGUCGAACCAUGAGUAUUUAGUUA
- pre-steady-state target cleavage rate [1]: 0.000404 ± 0.012
- pre-steady-state target cleavage rate [2]: 0.000467 ± 0.013

Sequence: UCCUGGAACAGCUUGCAAAGUAUUUAGUAA
- pre-steady-state target cleavage rate [1]: 0.00293 ± 0.0022
- pre-steady-state target cleavage rate [2]: 0.000691 ± 0.0098

Sequence: UCCUGGUACAGCAUGCAUAGUAAUUAGUUA
- pre-steady-state target cleavage rate [1]: 0.00882 ± 0.0034
- pre-steady-state target cleavage rate [2]: 0.000425 ± 0.027

Sequence: UCCUGGAUGUGCUUGCAAAGUAAUUAGUUA
- pre-steady-state target cleavage rate [1]: 0.00249 ± 0.0041
- pre-steady-state target cleavage rate [2]: 0.000379 ± 0.023

Sequence: UCCUGGAUGAGCUUGCAUAGUAUUAUAGUUA
- pre-steady-state target cleavage rate [1]: 0.0159 ± 0.0056
- pre-steady-state target cleavage rate [2]: 0.0249 ± 0.011

Sequence: UCCUGGAUGUCGUUGCAUAGUAUUUAGUUA [g2:g18:cont:t1A]
- pre-steady-state target cleavage rate [1]: 0.00621 ± 0.0026
- pre-steady-state target cleavage rate [2]: 0.00103 ± 0.0074

Sequence: UCCUGGAUGAGCUUGCUUAGUAAUUAGUUA
- pre-steady-state target cleavage rate [1]: 0.00425 ± 0.0027
- pre-steady-state target cleavage rate [2]: 0.000376 ± 0.028

Sequence: UCCUCCUACAGCUUCCAUUGUAUUUAGUUA
- pre-steady-state target cleavage rate [1]: 0.00393 ± 0.0019
- pre-steady-state target cleavage rate [2]: 0.000524 ± 0.0091

Sequence: UCCUGGAACAGCUUGCUAUGUAUUUAGUUA
- pre-steady-state target cleavage rate [1]: 0.00155 ± 0.0048
- pre-steady-state target cleavage rate [2]: 0.00124 ± 0.0064

Sequence: UCCUGGAUGUGCUUGCAAAGUAUUUAGUUA
- pre-steady-state target cleavage rate [1]: 0.00905 ± 0.0036
- pre-steady-state target cleavage rate [2]: 0.00172 ± 0.0066

Sequence: UCCUGGUACAGCUAGCAAAGUAUUUAGUUA
- pre-steady-state target cleavage rate [1]: 0.00688 ± 0.0029
- pre-steady-state target cleavage rate [2]: 0.000822 ± 0.013

Sequence: UCCUGCUACAGCUAGCAUUGUAUUUAGUUA
- pre-steady-state target cleavage rate [1]: 0.00762 ± 0.0028
- pre-steady-state target cleavage rate [2]: 0.000993 ± 0.0062

Sequence: UCCUCCAACAGCUUGCAUAGUAUUUUGUUA
- pre-steady-state target cleavage rate [1]: 0.00594 ± 0.0025
- pre-steady-state target cleavage rate [2]: 0.000855 ± 0.0073

Sequence: UCCUGGAUGUGCUUGCGUAGUAUUUAGUUA
- pre-steady-state target cleavage rate [1]: 0.00248 ± 0.0048
- pre-steady-state target cleavage rate [2]: 0.00427 ± 0.0042

Sequence: UCCUGGAUGUGCUUGCAUAGUAUUGUAGUUA
- pre-steady-state target cleavage rate [1]: 0.00579 ± 0.0041
- pre-steady-state target cleavage rate [2]: 0.000484 ± 0.032

Sequence: UCCUGGAAGAGCUUGCAUAGUUUUUAGUUA
- pre-steady-state target cleavage rate [1]: 0.00316 ± 0.003
- pre-steady-state target cleavage rate [2]: 0.000972 ± 0.013

Sequence: UCCUGGAUGUCGAACGAUAGUAUUUAGUGA
- pre-steady-state target cleavage rate [1]: 0.000341 ± 0.017
- pre-steady-state target cleavage rate [2]: 0.000117 ± 0.034

Sequence: UCCUGGAUCAGCAUGCUUAGUAUUUAGUUA
- pre-steady-state target cleavage rate [1]: 0.0112 ± 0.0042
- pre-steady-state target cleavage rate [2]: 0.00113 ± 0.0078

Sequence: UCCUGGUAGAGCUUGCAUAGUAUUUUGUUA
- pre-steady-state target cleavage rate [1]: 0.00292 ± 0.0029
- pre-steady-state target cleavage rate [2]: 0.000363 ± 0.033

Sequence: UCCUGGAUGAGCUUGGAUAGUAUUUAGUUA
- pre-steady-state target cleavage rate [1]: 0.0043 ± 0.0033
- pre-steady-state target cleavage rate [2]: 0.000886 ± 0.012

Sequence: UCCUCCUACAGCUUGCAUAGUAUGUUAGUUA
- pre-steady-state target cleavage rate [1]: 0.00459 ± 0.0021
- pre-steady-state target cleavage rate [2]: 0.000476 ± 0.011

Sequence: UCCUCCUACAGCUUGCAAAGUAAUUAGUUA
- pre-steady-state target cleavage rate [1]: 0.00531 ± 0.0022
- pre-steady-state target cleavage rate [2]: 0.000772 ± 0.0084

Sequence: UCCUGGAUGAGCUUGCAUAGUUAUUAGUUA
- pre-steady-state target cleavage rate [1]: 0.0028 ± 0.0038
- pre-steady-state target cleavage rate [2]: 0.000448 ± 0.023

Sequence: UCCUCCUACAGCUUGCAUACUAAUUAGUUA
- pre-steady-state target cleavage rate [1]: 0.00358 ± 0.0017
- pre-steady-state target cleavage rate [2]: 0.000959 ± 0.0057

Sequence: UCCUGGAUCAGCUUGCAUAGUAUUUAGUGUA
- pre-steady-state target cleavage rate [1]: 0.0168 ± 0.0061
- pre-steady-state target cleavage rate [2]: 0.00292 ± 0.006

Sequence: UCCUGGAUGUGCUGUGCAUAGUAUUUAGUUA
- pre-steady-state target cleavage rate [1]: 0.00568 ± 0.0024
- pre-steady-state target cleavage rate [2]: 0.000726 ± 0.016

Sequence: UCCUGGAACAGCUUGCAUAGUAUUUAAUUA
- pre-steady-state target cleavage rate [1]: 0.00345 ± 0.0024
- pre-steady-state target cleavage rate [2]: 0.000675 ± 0.018

Sequence: UCCUGCUAGAGCUUGGAUAGUAUUUAGUUA
- pre-steady-state target cleavage rate [1]: 0.00499 ± 0.0016
- pre-steady-state target cleavage rate [2]: 0.000614 ± 0.0079

Sequence: UCCUGGAUGAGCUUGCAUAGUAGUUUAGUUA
- pre-steady-state target cleavage rate [1]: 0.00964 ± 0.0035
- pre-steady-state target cleavage rate [2]: 0.0124 ± 0.0079

Sequence: UCCUGGAUGUCGAACGUUAGUAUAUAGUUA
- pre-steady-state target cleavage rate [1]: 0.000305 ± 0.019
- pre-steady-state target cleavage rate [2]: 0.000122 ± 0.046

Sequence: UCCUCCUACACCUUGCAAAGUAUUUAGUUA
- pre-steady-state target cleavage rate [1]: 0.0172 ± 0.007
- pre-steady-state target cleavage rate [2]: 0.000798 ± 0.0072

Sequence: UCCUGGAACAGGUUGCAUAGUAUUUAGUUA
- pre-steady-state target cleavage rate [1]: 0.0388 ± 0.0088
- pre-steady-state target cleavage rate [2]: 0.000651 ± 0.012

Sequence: UCCUGGAACAGCUUGCAUACUAUUUAGUUA
- pre-steady-state target cleavage rate [1]: 0.00571 ± 0.0014
- pre-steady-state target cleavage rate [2]: 0.00116 ± 0.0068

Sequence: UCCUGGAUGAGCUUGCAUAGUAAUUAGAUA
- pre-steady-state target cleavage rate [1]: 0.00341 ± 0.0028
- pre-steady-state target cleavage rate [2]: 0.000614 ± 0.01

Sequence: UCCUGGAUGUCCUAGCAUAGUAUAUAGUUA
- pre-steady-state target cleavage rate [1]: 0.000458 ± 0.0074
- pre-steady-state target cleavage rate [2]: 0.000342 ± 0.021

Sequence: UCCUGGAUCAGCUUGCCUAGUAUUUAGUUA
- pre-steady-state target cleavage rate [1]: 0.0512 ± 0.011
- pre-steady-state target cleavage rate [2]: 0.00091 ± 0.012

Sequence: UCCUGGAUCAGCUUGCAUAGUAUUAACUUA
- pre-steady-state target cleavage rate [1]: 0.0015 ± 0.004
- pre-steady-state target cleavage rate [2]: 0.0011 ± 0.0093

Sequence: UCCUGGUACAGCUUGCAUAUAUUUAGUUA
- pre-steady-state target cleavage rate [1]: 0.0015 ± 0.0039
- pre-steady-state target cleavage rate [2]: 0.00103 ± 0.011

Sequence: UCCUGGAACACCUUGGAUAGUAUUUAGUUA
- pre-steady-state target cleavage rate [1]: 0.00205 ± 0.0028
- pre-steady-state target cleavage rate [2]: 0.000333 ± 0.023

Sequence: UCCUGGUACAGCUUGCAUAGUAUUUAAGUUA
- pre-steady-state target cleavage rate [1]: 0.00375 ± 0.0039
- pre-steady-state target cleavage rate [2]: 0.00555 ± 0.0052

Sequence: UCCUGGAACAGCGUUGCAUAGUAUUUAGUUA
- pre-steady-state target cleavage rate [1]: 0.0162 ± 0.0046
- pre-steady-state target cleavage rate [2]: 0.00185 ± 0.0057

Sequence: UCCUGGAUGAGCGUUGCAUAGUAUUUAGUUA
- pre-steady-state target cleavage rate [1]: 0.00582 ± 0.0034
- pre-steady-state target cleavage rate [2]: 0.00126 ± 0.0066

Sequence: UCCUGCUACAGCUUGCAAUGUAUUUAGUUA
- pre-steady-state target cleavage rate [1]: 0.00312 ± 0.0024
- pre-steady-state target cleavage rate [2]: 0.000553 ± 0.0091

Sequence: UCCUGGAUGAGCUAGCAUAGAAUUUAGUUA
- pre-steady-state target cleavage rate [1]: 0.00286 ± 0.0026
- pre-steady-state target cleavage rate [2]: 0.000437 ± 0.02

Sequence: UCCUGCUACACGAUGCAUAGUAUUUAGUUA
- pre-steady-state target cleavage rate [1]: 0.00905 ± 0.0024
- pre-steady-state target cleavage rate [2]: 0.000601 ± 0.011

Sequence: UCCUGGUUGAGCUUGCAUAGUAUUUACAAA
- pre-steady-state target cleavage rate [1]: 0.00201 ± 0.003
- pre-steady-state target cleavage rate [2]: 0.000703 ± 0.011

Sequence: UCCUGGAUGAGCUUGCAUAGUAUCUUAGUUA
- pre-steady-state target cleavage rate [1]: 0.0147 ± 0.005
- pre-steady-state target cleavage rate [2]: 0.00298 ± 0.0043

Sequence: UCCUGGAUGAGCAAGCAUAGUAUUUAGUUA
- pre-steady-state target cleavage rate [1]: 0.0118 ± 0.0048
- pre-steady-state target cleavage rate [2]: 0.00114 ± 0.0079

Sequence: UCCUCCUACAGCUUGCAUUGAAUUUAGUUA
- pre-steady-state target cleavage rate [1]: 0.00141 ± 0.0053
- pre-steady-state target cleavage rate [2]: 0.000156 ± 0.021

Sequence: UCCUGGAUGACCUUGCAAAGUAUUUAGUUA
- pre-steady-state target cleavage rate [1]: 0.00391 ± 0.0037
- pre-steady-state target cleavage rate [2]: 0.000492 ± 0.017

Sequence: UCCUGGUUCAGCUUGCAUAGUUUUUAGUUA
- pre-steady-state target cleavage rate [1]: 0.00498 ± 0.0023
- pre-steady-state target cleavage rate [2]: 0.000717 ± 0.018

Sequence: UCCUGCUACAGCUUGCAUAGUAUUUAGGUA
- pre-steady-state target cleavage rate [1]: 0.00342 ± 0.0016
- pre-steady-state target cleavage rate [2]: 0.00046 ± 0.011

Sequence: UCCUGCUACAGCUUGGAUUGUAUUUAGUUA
- pre-steady-state target cleavage rate [1]: 0.00362 ± 0.002
- pre-steady-state target cleavage rate [2]: 0.00035 ± 0.025

Sequence: UCCUGGAACAGCUUGGUUAGUAUUUAGUUA
- pre-steady-state target cleavage rate [1]: 0.0135 ± 0.005
- pre-steady-state target cleavage rate [2]: 0.00183 ± 0.0073

Sequence: UCCUGGAUCUGCUUGCAUACUAUUUAGUUA
- pre-steady-state target cleavage rate [1]: 0.00859 ± 0.0023
- pre-steady-state target cleavage rate [2]: 0.00235 ± 0.0052

Sequence: UCCUGGAUCAGCUUGCAUAGUGAUUUAGUUA
- pre-steady-state target cleavage rate [1]: 0.000282 ± 0.028
- pre-steady-state target cleavage rate [2]: 0.000294 ± 0.033

Sequence: UCCUGGAACUGCUUGCAUAGUUUUUAGUUA
- pre-steady-state target cleavage rate [1]: 0.00498 ± 0.0026
- pre-steady-state target cleavage rate [2]: 0.000419 ± 0.022

Sequence: UCCUGGAUGAGCUUGCAUAGUAUUUAGGUA
- pre-steady-state target cleavage rate [1]: 0.00204 ± 0.0025
- pre-steady-state target cleavage rate [2]: 0.000767 ± 0.015
